Experimental data reported in paper doi:10.1101/2025.11.23.689998.

Protein sequences, listed by entry. Tags and fused reporters are not part of them.
UniProt P14713: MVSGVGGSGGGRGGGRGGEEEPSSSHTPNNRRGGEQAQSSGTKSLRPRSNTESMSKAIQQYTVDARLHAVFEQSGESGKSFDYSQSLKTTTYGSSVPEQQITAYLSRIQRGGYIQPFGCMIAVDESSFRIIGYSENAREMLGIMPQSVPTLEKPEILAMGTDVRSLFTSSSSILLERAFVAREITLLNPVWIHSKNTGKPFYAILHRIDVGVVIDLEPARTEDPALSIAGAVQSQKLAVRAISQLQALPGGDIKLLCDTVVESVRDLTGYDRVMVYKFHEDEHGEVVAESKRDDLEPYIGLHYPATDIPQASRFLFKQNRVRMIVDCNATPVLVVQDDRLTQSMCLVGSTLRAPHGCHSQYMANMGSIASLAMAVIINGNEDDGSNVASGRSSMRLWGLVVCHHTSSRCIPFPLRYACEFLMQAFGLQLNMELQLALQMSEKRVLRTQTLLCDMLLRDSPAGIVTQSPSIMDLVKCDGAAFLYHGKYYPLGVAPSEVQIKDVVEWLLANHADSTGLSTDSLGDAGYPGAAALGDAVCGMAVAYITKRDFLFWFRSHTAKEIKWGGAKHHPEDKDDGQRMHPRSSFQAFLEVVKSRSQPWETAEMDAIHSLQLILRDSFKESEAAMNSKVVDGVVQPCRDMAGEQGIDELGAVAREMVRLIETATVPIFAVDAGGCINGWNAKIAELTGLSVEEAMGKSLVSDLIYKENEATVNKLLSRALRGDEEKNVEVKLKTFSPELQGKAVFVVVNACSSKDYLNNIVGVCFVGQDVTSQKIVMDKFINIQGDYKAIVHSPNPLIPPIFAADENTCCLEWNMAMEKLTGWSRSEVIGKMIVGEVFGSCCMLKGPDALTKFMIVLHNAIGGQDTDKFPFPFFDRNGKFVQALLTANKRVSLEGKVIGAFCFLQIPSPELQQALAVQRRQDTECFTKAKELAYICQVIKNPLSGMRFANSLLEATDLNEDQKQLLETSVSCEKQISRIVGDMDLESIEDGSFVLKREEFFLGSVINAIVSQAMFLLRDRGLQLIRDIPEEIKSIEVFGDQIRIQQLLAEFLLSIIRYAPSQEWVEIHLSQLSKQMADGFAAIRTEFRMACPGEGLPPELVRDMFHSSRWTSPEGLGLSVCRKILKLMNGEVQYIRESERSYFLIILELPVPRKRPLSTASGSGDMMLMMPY

B1: LRR-like receptor At1g62630 (receptor, UniProt Q9SI85 1-893)
chain: MGISFSIPFDPCVNKVSQWLDMKGSYTHNLEKNLVALETTMEELKAKRDDLLRRLKREEDRGLQRLSEFQVWLNRVATVEDIIITLLRDRDVEIQRLCLCRFCSKNLTTSYRYGKSVFLRLREVEKLKGEVFGVITEQASTSAFEERPLQPTIVGQKKMLDKAWKHLMEDGTGIMGMYGMGGVGKTTLLTQLFNMFNKDKCGFDIGIWVVVSQEVNVEKIQDEIAQKLGLGGHEWTQRDISQKGVHLFNFLKNKKFVLFLDDLWDKVELANIGVPDPRTQKGCKLAFTSRSLNVCTSMGDEEPMEVQCLEENVAFDLFQKKVGQKTLGSDPGIPQLARIVAKKCCGLPLALNVIGETMSCKRTIQEWRNAIHVLNSYAAEFIGMEDKILPLLKYSYDNLKGEHVKSSLLYCALYPEDAKIRKEDLIEHWICEEIIDGSEGIEKAEDKGYDIIGSLVRASLLMECVDLKGKSSVIMHDVVREMALWIASELGIQKEAFIVRAGVGVREIPKVKNWNVVRRMSLMGNKIHHLVGSYECMELTTLLLGEGEYGSIWRWSEIKTISSEFFNCMPKLAVLDLSHNQSLFELPEEISNLVSLKYLNLSHTGIRHLSKGIQELKKIIHLNLEHTSKLESIDGISSLHNLKVLKLYGSRLPWDLNTVKELETLEHLEILTTTIDPRAKQFLSSHRLMSRSRLLQIFGSNIFSPDRQLESLSVSTDKLREFEIMCCSISEIKMGGICNFLSLVDVTIYNCEGLRELTFLIFAPKLRSLSVVDAKDLEDIINEEKACEGEDSGIVPFPELKYLNLDDLPKLKNIYRRPLPFLCLEKITIGECPNLRKLPLDSRSGKQGENGCIIHYKDSRWLKGVKWADEATKKRFLPSCEHRLERCETIFED
B2: PHYTOCHROME E (protein, UniProt P42498 1-1112)
chain: MGFESSSSAASNMKPQPQKSNTAQYSVDAALFADFAQSIYTGKSFNYSKSVISPPNHVPDEHITAYLSNIQRGGLVQPFGCLIAVEEPSFRILGLSDNSSDFLGLLSLPSTSHSGEFDKVKGLIGIDARTLFTPSSGASLSKAASFTEISLLNPVLVHSRTTQKPFYAILHRIDAGIVMDLEPAKSGDPALTLAGAVQSQKLAVRAISRLQSLPGGDIGALCDTVVEDVQRLTGYDRVMVYQFHEDDHGEVVSEIRRSDLEPYLGLHYPATDIPQAARFLFKQNRVRMICDCNATPVKVVQSEELKRPLCLVNSTLRAPHGCHTQYMANMGSVASLALAIVVKGKDSSKLWGLVVGHHCSPRYVPFPLRYACEFLMQAFGLQLQMELQLASQLAEKKAMRTQTLLCDMLLRDTVSAIVTQSPGIMDLVKCDGAALYYKGKCWLVGVTPNESQVKDLVNWLVENHGDDSTGLTTDSLVDAGYPGAISLGDAVCGVAAAGFSSKDYLLWFRSNTASAIKWGGAKHHPKDKDDAGRMHPRSSFTAFLEVAKSRSLPWEISEIDAIHSLRLIMRESFTSSRPVLSGNGVARDANELTSFVCEMVRVIETATAPIFGVDSSGCINGWNKKTAEMTGLLASEAMGKSLADEIVQEESRAALESLLCKALQGEEEKSVMLKLRKFGQNNHPDYSSDVCVLVNSCTSRDYTENIIGVCFVGQDITSEKAITDRFIRLQGDYKTIVQSLNPLIPPIFASDENACCSEWNAAMEKLTGWSKHEVIGKMLPGEVFGVFCKVKCQDSLTKFLISLYQGIAGDNVPESSLVEFFNKEGKYIEASLTANKSTNIEGKVIRCFFFLQIINKESGLSCPELKESAQSLNELTYVRQEIKNPLNGIRFAHKLLESSEISASQRQFLETSDACEKQITTIIESTDLKSIEEGKLQLETEEFRLENILDTIISQVMIILRERNSQLRVEVAEEIKTLPLNGDRVKLQLILADLLRNIVNHAPFPNSWVGISISPGQELSRDNGRYIHLQFRMIHPGKGLPSEMLSDMFETRDGWVTPDGLGLKLSRKLLEQMNGRVSYVREDERCFFQVDLQVKTMLGVESRGTEGSSSIK
B3: phytochrome-associated PROTEIN PHOSPHATASE TYPE 2C (enzyme, UniProt Q9LME4 1-281)
chain: MGKFCCFTSASEVVGGQSSSRSGKGRSDEGMIKYGFSLVKGKANHPMEDYHVANFINIQDHELGLFAIYDGHMGDSVPAYLQKRLFSNILKEGEFWVDPRRSIAKAYEKTDQAILSNSSDLGRGGSTAVTAILINGRKLWIANVGDSRAVLSHGGAITQMSTDHEPRTERSSIEDRGGFVSNLPGDVPRVNGQLAVSRAFGDKGLKTHLSSEPDIKEATVDSQTDVLLLASDGIWKVMTNEEAMEIARRVKDPQKAAKELTAEALRRESKDDISCVVVRFR
B4: PHYTOCHROME KINASE SUBSTRATE 2 (protein, UniProt Q9M9T4 1-442)
chain: MVTLTSSSSTPNVSFDFMMNNNNNSNNLYGPFSSSSTSFSYLTSKEDALTQKNLMSGITNDVLGINKKASEDLEISVFGAEKYFNGDMDSDHSPRLVSPLPDPEVPIERIFVGPKQSSKNSSETPSLRSESSWNSQSLLLQSKYVEKKKNIKKNSSCNSYFQEKDMSSNHKVSNKKSFLATLGCRCVCSNWSSVDVVDDKRRSSGLKKIKTQLSFSGDLSSEMKIHQQQQEAMLEQRKSLEIFGSPLIEKRIIQKKFPWEYSSSAKKEEHGFSVKYEEEEDGSVSDVSTDLFEIESLTGKANPFLARQGSSDPDSPDGYAPSEVSIQWSVVTASVADFSVMSECATSPVKKNRSFQIPRIPIMAKSNREIAPQRRKSSSSGLLMGCKSHKSVRVSGDSYTSMNRTPSYVPRFPVEANPTSTETRRRISSSSVSHTQSPFLYT
B5: LESION SIMULATING DISEASE 1 (LSD1) zinc finger family protein (protein, UniProt P94077 1-189)
chain: MKVADMQDQLVCHGCRNLLMYPRGASNVRCALCNTINMVPPPPPPHDMAHIICGGCRTMLMYTRGASSVRCSCCQTTNLVPAHSNQVAHAPSSQVAQINCGHCRTTLMYPYGASSVKCAVCQFVTNVNMSNGRVPLPTNRPNGTACPPSTSTSTPPSQTQTVVVENPMSVDESGKLVSNVVVGVTTDKK
B6: PHYTOCHROME C (protein, UniProt P14714 1-1111)
chain: MSSNTSRSCSTRSRQNSRVSSQVLVDAKLHGNFEESERLFDYSASINLNMPSSSCEIPSSAVSTYLQKIQRGMLIQPFGCLIVVDEKNLKVIAFSENTQEMLGLIPHTVPSMEQREALTIGTDVKSLFLSPGCSALEKAVDFGEISILNPITLHCRSSSKPFYAILHRIEEGLVIDLEPVSPDEVPVTAAGALRSYKLAAKSISRLQALPSGNMLLLCDALVKEVSELTGYDRVMVYKFHEDGHGEVIAECCREDMEPYLGLHYSATDIPQASRFLFMRNKVRMICDCSAVPVKVVQDKSLSQPISLSGSTLRAPHGCHAQYMSNMGSVASLVMSVTINGSDSDEMNRDLQTGRHLWGLVVCHHASPRFVPFPLRYACEFLTQVFGVQINKEAESAVLLKEKRILQTQSVLCDMLFRNAPIGIVTQSPNIMDLVKCDGAALYYRDNLWSLGVTPTETQIRDLIDWVLKSHGGNTGFTTESLMESGYPDASVLGESICGMAAVYISEKDFLFWFRSSTAKQIKWGGARHDPNDRDGKRMHPRSSFKAFMEIVRWKSVPWDDMEMDAINSLQLIIKGSLQEEHSKTVVDVPLVDNRVQKVDELCVIVNEMVRLIDTAAVPIFAVDASGVINGWNSKAAEVTGLAVEQAIGKPVSDLVEDDSVETVKNMLALALEGSEERGAEIRIRAFGPKRKSSPVELVVNTCCSRDMTNNVLGVCFIGQDVTGQKTLTENYSRVKGDYARIMWSPSTLIPPIFITNENGVCSEWNNAMQKLSGIKREEVVNKILLGEVFTTDDYGCCLKDHDTLTKLRIGFNAVISGQKNIEKLLFGFYHRDGSFIEALLSANKRTDIEGKVTGVLCFLQVPSPELQYALQVQQISEHAIACALNKLAYLRHEVKDPEKAISFLQDLLHSSGLSEDQKRLLRTSVLCREQLAKVISDSDIEGIEEGYVELDCSEFGLQESLEAVVKQVMELSIERKVQISCDYPQEVSSMRLYGDNLRLQQILSETLLSSIRFTPALRGLCVSFKVIARIEAIGKRMKRVELEFRIIHPAPGLPEDLVREMFQPLRKGTSREGLGLHITQKLVKLMERGTLRYLRESEMSAFVILTEFPLI
B7: RECEPTOR LIKE PROTEIN 29 (receptor, UniProt Q9SJH6 27-462)
chain: QENRVSASMPPSESETLFKIMESMSSDQQWRQSHPNPCAPGSSWPGIECKTGPDHLSHVSRLDFGSAPNPSCKSSASFPSSIFTLPFLQSVFFFNCFTHFPTTIMFPIKLIPNSSLQQLSLRSNPSLSGQIPPRISSLKSLQILTLSQNRLTGDIPPAIFSLKSLVHLDLSYNKLTGKIPLQLGNLNNLVGLDLSYNSLTGTIPPTISQLGMLQKLDLSSNSLFGRIPEGVEKLRSLSFMALSNNKLKGAFPKGISNLQSLQYFIMDNNPMFVALPVELGFLPKLQELQLENSGYSGVIPESYTKLTNLSSLSLANNRLTGEIPSGFESLPHVFHLNLSRNLLIGVVPFDSSFLRRLGKNLDLSGNRGLCLNPEDEFSVVKTGVDVCGKNVSSGGGLSVHSSKKKSQASRYYRSCFFANALFPFALFLGLHQRWVL
B8: LRR-like receptor At1g58848 (receptor, UniProt P0DI17 1-1049)
chain: MAGELISFGIQNLWNLLSQECELFQGVEDQVTELKRDLNLLSSFLKDADAKKHTSAVVKNCVEEIKEIIYDGEDTIETFVLEQNLGKTSGIKKSIRRLACIIPDRRRYALGIGGLSNRISKVIRDMQSFGVQQAIVDGGYKQPQGDKQREMRPRFSKDDDSDFVGLEANVKKLVGYLVDEANVQVVSITGMGGLGKTTLAKQVFNHEDVKHQFDGLSWVCVSQDFTRMNVWQKILRDLKPKEEEKKIMEMTQDTLQGELIRLLETSKSLIVLDDIWEKEDWELIKPIFPPTKGWKVLLTSRNESVAMRRNTSYINFKPECLTTEDSWTLFQRIALPMKDAAEFKIDEEKEELGKLMIKHCGGLPLAIRVLGGMLAEKYTSHDWRRLSENIGSHLVGGRTNFNDDNNNTCNYVLSLSFEELPSYLKHCFLYLAHFPDDYEINVKNLSYYWAAEGIFQPRHYDGEIIRDVGDVYIEELVRRNMVISERDVKTSRFETCHLHDMMREVCLLKAKEENFLQITSSRTSTGNSLSIVTSRRLVYQYPITLDVEKDINDPKLRSLVVVANTYMFWGGWSWMLLGSSFIRLELLRVLDIHRAKLKGGKLASSIGQLIHLRYLNLKHAEVTHIPYSLGNLKLLIYLNLVILVSGSTLVPNVLKEMQQLRYLALPKDMGRKTKLELSNLVKLETLKNFSTKNCSLEDLRGMVRLRTLTIELRKETSLETLAASIGGLKYLESLTITDLGSEMRTKEAGIVFDFVYLKTLTLKLYMPRLSKEQHFPSHLTTLYLQHCRLEEDPMPILEKLHQLKELELRRKSFSGKEMVCSSGGFPQLQKLSIKGLEEWEDWKVEESSMPVLHTLDIRDCRKLKQLPDEHLPSHLTSISLFFCCLEEDPMPTLERLVHLKELQLLFRSFSGRIMVCAGSGFPQLHKLKLSELDGLEEWIVEDGSMPQLHTLEIRRCPKLKKLPNGFPQLQNLELNELEEWEEWIVEDGSMPLLHTLRIWNCPKLKQLPDGLRFIYSLKNLTVPKRWKKRLSKGGEDYYKVQHIPSVEFY

Target: phyB-miniTurbo (phyB CDS - miniTurbo-sCFP3A-3FLAG) (Arabidopsis thaliana) (UniProt P14713)
Experiment: proximity labelling

binding, binds:
B1, B2, B3, B4, B5, B6, B7, B8

Results are given in words; binding and its absence hold for the method and conditions named. In cells and extracts the contact can be indirect. A yes stands for co-enrichment or nearness to the bait. Other partners may have been found.
